These results are taken from patent US20020106347A1, “Cytokines and their use in treatment and/or prophylaxis of breast cancer” (priority 1995, published 2002).

The subject of the data set is MCF-7 cell line. As to the kind of experiment: Receptor binding of radioiodinated ligand to MCF-7 cells, Scatchard analysis. Also noted: species or system human. To be noted: MCF-7, Scatchard analysis. As for the experimental part:
FIG. 20 is a graphical representation showing Scatchard analyses of the saturation isotherms of LIF and OSM binding to breast cancer cell lines. Cells were incubated with various concentrations of labelled or unlabelled ligand in the presence or absence of a 10-100 fold excess of unlabelled ligand. After 18 hr on ice, bound and free ligand were separated by centrifugation through bovine calf serum. Bound and free ^125I-ligand was quantitated in a γ-counter and the data was depicted as a Scatchard transformation. Data was normalised for cell number and is shown as binding to 10^6 cells. A) Saturation isotherm of LIF binding to the MCF-7 cell line. […] B) Saturation isotherm of OSM binding to the MDA-MB-231 cell line.
Receptor binding assays were performed using radioiodinated LIF (^125I-LIF) and OSM (^125I-OSM). The radioiodination of LIF and OSM and binding assays were essentially performed as previously described (Hilton et al., 1991; Hilton and Nicola, 1992). […] The pellet and supernatant were subsequently counted in a γ-counter. […] Number of cell surface receptors and dissociation constant were calculated by Scatchard analysis.

Leukemia Inhibitory Factor [LIF]: the “estimated receptors per cell” value was 57 receptors per cell.

Turning to oncostatin M [OSM], the “estimated receptors per cell” value is 990 receptors per cell.
